# Assay results reported in the supplement of paper PMC10849652.
# The chains behind the UniProt entries cited, without tags or fusion partners. Where a name states a change or a piece, a line headed by the entry shows the natural chain unless it says otherwise.
# UniProt Q92692, whole entry, looked up: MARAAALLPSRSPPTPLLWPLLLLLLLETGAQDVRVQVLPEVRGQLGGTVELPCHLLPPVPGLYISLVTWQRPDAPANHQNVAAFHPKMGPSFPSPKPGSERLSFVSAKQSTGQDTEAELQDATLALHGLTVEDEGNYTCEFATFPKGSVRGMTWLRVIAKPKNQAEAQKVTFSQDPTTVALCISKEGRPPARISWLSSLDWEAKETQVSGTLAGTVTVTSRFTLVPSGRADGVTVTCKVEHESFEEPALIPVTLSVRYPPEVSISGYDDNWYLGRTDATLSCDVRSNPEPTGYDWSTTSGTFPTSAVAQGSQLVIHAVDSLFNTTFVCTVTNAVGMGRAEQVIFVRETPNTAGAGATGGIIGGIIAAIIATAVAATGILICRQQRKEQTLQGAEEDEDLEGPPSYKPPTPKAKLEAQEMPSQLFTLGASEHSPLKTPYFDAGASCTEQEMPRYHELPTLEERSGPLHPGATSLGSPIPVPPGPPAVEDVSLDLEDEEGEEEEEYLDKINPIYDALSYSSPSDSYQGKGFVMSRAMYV
# UniProt Q9UI09, whole entry, looked up: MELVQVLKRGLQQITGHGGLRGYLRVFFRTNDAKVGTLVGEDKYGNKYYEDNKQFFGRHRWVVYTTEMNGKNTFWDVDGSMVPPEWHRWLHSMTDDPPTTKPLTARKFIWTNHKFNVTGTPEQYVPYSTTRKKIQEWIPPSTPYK
# UniProt Q9BT67: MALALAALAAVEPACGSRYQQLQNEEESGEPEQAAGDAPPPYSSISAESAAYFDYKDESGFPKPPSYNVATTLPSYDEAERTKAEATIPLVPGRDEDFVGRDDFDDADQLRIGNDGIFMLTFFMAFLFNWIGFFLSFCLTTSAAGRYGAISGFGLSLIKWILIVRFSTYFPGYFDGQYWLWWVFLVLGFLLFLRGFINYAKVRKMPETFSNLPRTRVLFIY
# UniProt Q15021, whole entry, looked up: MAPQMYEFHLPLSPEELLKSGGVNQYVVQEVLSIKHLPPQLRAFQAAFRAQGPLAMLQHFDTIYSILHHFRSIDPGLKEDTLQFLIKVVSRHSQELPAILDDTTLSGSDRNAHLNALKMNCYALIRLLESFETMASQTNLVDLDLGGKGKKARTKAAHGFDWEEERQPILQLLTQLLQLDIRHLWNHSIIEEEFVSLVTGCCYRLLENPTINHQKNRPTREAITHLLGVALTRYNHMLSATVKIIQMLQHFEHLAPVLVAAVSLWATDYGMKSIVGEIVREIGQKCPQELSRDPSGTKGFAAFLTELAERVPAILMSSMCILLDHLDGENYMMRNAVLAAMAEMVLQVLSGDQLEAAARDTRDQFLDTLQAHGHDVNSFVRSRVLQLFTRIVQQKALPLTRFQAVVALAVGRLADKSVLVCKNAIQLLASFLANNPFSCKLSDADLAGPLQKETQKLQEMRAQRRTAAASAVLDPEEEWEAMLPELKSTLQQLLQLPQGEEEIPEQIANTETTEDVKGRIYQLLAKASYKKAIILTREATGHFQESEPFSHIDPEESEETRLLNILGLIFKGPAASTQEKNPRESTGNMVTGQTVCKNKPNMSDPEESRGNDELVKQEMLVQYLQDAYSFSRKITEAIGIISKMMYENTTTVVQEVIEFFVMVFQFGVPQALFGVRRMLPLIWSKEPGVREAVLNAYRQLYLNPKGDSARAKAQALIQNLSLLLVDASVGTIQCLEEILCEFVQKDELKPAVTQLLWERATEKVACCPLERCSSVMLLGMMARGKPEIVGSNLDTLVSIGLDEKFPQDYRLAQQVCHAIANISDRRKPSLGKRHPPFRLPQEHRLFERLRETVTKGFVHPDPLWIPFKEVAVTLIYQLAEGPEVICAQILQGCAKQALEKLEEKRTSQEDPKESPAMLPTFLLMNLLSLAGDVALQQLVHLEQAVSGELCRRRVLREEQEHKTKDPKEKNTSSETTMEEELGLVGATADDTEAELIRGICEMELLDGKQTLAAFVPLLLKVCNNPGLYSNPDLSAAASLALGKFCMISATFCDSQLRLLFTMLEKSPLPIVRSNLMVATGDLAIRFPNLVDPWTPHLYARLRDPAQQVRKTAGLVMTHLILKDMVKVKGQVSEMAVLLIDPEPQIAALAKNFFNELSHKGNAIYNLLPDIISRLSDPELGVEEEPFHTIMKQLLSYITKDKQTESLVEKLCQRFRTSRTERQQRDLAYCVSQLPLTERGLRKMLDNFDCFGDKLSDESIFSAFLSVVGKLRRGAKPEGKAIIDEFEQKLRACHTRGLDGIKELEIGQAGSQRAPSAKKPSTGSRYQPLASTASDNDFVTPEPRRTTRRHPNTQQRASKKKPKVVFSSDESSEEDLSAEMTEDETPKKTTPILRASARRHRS
# UniProt Q96I59: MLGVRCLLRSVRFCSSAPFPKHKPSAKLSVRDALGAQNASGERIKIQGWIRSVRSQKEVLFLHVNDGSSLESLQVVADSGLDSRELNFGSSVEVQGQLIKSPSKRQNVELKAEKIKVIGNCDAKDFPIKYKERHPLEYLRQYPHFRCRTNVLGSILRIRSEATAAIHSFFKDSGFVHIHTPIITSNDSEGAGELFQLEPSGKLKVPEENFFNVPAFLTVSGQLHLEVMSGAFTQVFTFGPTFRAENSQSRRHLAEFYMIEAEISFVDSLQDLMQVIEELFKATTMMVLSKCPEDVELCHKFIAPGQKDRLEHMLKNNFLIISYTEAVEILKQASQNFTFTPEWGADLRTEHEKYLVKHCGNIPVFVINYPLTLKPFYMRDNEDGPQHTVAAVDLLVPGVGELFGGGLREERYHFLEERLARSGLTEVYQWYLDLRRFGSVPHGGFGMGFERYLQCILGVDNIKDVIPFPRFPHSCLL
# UniProt O75438, whole entry, looked up: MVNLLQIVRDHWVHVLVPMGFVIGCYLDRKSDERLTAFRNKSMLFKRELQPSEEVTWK
# UniProt P19338, whole entry, looked up: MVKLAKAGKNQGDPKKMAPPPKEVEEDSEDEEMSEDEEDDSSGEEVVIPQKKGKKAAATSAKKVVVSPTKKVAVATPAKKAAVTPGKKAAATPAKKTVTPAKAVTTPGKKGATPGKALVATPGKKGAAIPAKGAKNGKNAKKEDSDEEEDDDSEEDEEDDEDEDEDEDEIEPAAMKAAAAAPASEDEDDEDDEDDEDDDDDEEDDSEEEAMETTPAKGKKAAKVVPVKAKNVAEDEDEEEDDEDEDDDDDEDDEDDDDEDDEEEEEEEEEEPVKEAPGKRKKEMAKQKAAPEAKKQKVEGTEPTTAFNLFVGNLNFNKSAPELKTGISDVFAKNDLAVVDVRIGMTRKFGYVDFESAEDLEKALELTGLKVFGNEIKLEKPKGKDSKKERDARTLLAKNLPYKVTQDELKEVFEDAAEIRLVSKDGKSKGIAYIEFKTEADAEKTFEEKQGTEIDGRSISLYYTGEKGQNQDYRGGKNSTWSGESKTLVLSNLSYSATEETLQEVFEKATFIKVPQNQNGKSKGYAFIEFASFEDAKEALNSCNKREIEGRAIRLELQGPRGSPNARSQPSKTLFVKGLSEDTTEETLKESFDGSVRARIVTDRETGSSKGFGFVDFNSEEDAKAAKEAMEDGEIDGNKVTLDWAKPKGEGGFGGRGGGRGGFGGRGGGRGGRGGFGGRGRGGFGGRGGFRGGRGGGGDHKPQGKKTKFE
# UniProt Q9NR45: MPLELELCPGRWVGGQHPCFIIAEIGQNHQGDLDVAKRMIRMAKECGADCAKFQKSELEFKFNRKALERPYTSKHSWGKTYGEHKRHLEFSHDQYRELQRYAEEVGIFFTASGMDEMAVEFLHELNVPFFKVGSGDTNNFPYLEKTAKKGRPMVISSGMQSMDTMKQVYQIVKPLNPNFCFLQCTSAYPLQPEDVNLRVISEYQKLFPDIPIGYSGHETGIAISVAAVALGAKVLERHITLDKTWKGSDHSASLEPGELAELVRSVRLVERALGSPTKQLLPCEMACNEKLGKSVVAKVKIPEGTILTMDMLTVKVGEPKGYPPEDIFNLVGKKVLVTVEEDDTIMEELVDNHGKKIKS
# UniProt Q99747: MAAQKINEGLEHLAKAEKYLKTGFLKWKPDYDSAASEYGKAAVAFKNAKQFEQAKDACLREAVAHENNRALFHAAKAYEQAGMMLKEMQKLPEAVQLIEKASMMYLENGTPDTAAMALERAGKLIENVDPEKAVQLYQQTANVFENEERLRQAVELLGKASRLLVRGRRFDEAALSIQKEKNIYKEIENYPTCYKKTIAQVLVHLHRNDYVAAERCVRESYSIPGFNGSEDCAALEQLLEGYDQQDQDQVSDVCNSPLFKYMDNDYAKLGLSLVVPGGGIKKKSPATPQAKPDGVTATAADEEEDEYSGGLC
# UniProt Q5VVJ2: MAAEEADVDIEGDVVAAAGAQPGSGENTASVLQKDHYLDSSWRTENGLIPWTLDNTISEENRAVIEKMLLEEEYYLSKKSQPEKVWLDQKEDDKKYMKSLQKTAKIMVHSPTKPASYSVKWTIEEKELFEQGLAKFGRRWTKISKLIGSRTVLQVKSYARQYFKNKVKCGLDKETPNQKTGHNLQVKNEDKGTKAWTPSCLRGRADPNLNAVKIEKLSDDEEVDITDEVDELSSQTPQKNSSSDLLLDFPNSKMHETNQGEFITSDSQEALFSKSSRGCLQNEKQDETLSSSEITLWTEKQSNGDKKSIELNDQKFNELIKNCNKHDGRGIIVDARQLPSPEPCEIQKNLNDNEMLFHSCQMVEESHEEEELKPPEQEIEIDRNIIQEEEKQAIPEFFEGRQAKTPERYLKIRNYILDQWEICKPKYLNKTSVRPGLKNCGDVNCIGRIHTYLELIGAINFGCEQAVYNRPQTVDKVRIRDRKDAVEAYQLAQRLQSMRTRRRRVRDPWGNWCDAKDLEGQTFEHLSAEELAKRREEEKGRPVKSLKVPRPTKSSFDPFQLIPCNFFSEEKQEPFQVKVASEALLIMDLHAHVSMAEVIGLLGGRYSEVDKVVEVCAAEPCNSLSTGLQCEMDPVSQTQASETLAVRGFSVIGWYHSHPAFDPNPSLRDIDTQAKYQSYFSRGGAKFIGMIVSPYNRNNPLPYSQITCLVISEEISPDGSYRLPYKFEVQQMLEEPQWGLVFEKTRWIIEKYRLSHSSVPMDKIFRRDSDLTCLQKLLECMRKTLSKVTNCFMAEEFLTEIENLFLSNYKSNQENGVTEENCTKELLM
# UniProt Q13075: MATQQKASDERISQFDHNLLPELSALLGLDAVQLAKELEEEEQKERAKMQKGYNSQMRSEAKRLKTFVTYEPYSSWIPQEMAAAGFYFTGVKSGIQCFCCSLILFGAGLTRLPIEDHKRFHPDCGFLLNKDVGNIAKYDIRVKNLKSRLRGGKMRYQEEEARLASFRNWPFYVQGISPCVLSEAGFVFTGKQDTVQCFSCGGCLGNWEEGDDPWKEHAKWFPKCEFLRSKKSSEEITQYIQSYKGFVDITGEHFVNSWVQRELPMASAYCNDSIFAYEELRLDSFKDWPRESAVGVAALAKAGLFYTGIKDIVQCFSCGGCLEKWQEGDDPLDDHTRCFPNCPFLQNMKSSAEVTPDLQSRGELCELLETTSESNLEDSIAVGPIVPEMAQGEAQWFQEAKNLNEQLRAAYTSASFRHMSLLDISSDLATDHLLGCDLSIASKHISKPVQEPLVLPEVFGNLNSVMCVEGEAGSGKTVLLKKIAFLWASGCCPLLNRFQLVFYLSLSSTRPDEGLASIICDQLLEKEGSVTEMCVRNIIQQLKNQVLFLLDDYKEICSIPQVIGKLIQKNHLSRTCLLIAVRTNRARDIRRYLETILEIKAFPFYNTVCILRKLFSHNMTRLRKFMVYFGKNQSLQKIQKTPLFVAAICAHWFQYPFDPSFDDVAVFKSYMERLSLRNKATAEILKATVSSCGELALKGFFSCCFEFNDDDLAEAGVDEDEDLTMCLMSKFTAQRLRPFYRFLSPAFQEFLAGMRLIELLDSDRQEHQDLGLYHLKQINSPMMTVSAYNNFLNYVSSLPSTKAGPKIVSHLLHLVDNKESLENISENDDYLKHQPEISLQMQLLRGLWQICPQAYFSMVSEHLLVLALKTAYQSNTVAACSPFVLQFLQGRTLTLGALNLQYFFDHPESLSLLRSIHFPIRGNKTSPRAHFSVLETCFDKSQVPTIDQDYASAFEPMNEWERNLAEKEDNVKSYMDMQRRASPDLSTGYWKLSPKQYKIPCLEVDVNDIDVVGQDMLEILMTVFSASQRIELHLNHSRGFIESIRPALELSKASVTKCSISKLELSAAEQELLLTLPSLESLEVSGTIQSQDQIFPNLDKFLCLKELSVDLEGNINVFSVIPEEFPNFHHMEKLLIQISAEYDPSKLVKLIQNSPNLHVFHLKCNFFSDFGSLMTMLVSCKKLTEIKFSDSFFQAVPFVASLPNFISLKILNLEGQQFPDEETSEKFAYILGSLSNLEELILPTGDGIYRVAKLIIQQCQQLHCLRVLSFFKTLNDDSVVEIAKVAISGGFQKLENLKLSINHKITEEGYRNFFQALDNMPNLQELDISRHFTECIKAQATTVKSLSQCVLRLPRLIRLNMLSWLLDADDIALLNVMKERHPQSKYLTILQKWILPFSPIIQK
# The list shows a part of the results.
# What was measured:
# Assay in all cases: log2 fold change, soluble protein after heating vs DMSO (PISA); higher = thermal stabilisation; K562 cells, 10 uM, 30 min; active = over 0.2 and 3.5 SD of the protein, either way, in both replicates (recomputed)
# [1] = compound: CS(=O)(=O)c1ccc(-c2cnc(N)c(C(=O)Nc3ccccc3)n2)cc1
# Summary of the method: (§1)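 Thermal stability values are relative to control samples and come from duplicates. They are expressed as log2 fold changes. For measurement, K562 cells (2×10^6 cells/mL) received 10 μM compound for 30 min, and aliquots were heated for 3 min over 48°C-58°C, pooled, and extracted at 4°C in PBS with 0.5% NP-40. Soluble protein, the supernatant after 21,000xg for 90 min, was quantified by TMTpro 16plex LC-MS/MS with equalised channel sums.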
# crizotinib = compound: C[C@@H](Oc1cc(-c2cnn(C3CCNCC3)c2)cnc1N)c1c(Cl)ccc(F)c1Cl [crizotinib]
# Summary of the method: as §1
# [2] = compound: C[C@@H]1COCCN1C2=NC(=NC(=C2)C3(CC3)S(=O)(=O)C)C4=C5C=CNC5=CC=C4
# Summary of the method: as §1
# [3] = compound: C[C@H](C1=CC=C(C=C1)C(=O)NC2=C3C=CNC3=NC=C2)N
# Summary of the method: as §1
# gandotinib = compound: Cc1cc(Nc2cc(CN3CCOCC3)c3nc(C)c(Cc4ccc(Cl)cc4F)n3n2)n[nH]1 [gandotinib]
# Summary of the method: as §1
# [4] = compound: Cc1cc(SCc2sc(-c3ccc(C(F)(F)F)cc3)nc2C)ccc1OCC(=O)O
# Summary of the method: as §1
# doramapimod = compound: Cc1ccc(-n2nc(C(C)(C)C)cc2NC(=O)Nc2ccc(OCCN3CCOCC3)c3ccccc23)cc1 [doramapimod]
# Summary of the method: as §1
# ispinesib = compound: Cc1ccc(C(=O)N(CCCN)[C@@H](c2nc3cc(Cl)ccc3c(=O)n2Cc2ccccc2)C(C)C)cc1 [ispinesib]
# Summary of the method: as §1
# bafetinib = compound: Cc1ccc(NC(=O)c2ccc(CN3CC[C@H](N(C)C)C3)c(C(F)(F)F)c2)cc1Nc1nccc(-c2cncnc2)n1 [bafetinib]
# Summary of the method: as §1
# [5] = compound: Cc1cccc(CC(=O)N2CCc3c2ccc(-c2cn(C)c4ncnc(N)c24)c3F)n1
# Summary of the method: as §1
# nilotinib = compound: Cc1cn(-c2cc(NC(=O)c3ccc(C)c(Nc4nccc(-c5cccnc5)n4)c3)cc(C(F)(F)F)c2)cn1 [nilotinib]
# Summary of the method: as §1
# [6] = compound: Cc1nc(Nc2n[nH]c3c2CN(C(=O)N[C@H](CN(C)C)c2ccccc2)C3(C)C)c2sccc2n1
# Summary of the method: as §1
# dasatinib = compound: Cc1nc(Nc2ncc(C(=O)Nc3c(C)cccc3Cl)s2)cc(N2CCN(CCO)CC2)n1 [dasatinib]
# Summary of the method: as §1
# [7] = compound: Cc1ncc(-c2ccnc(Nc3ccc(S(C)(=O)=O)cc3)n2)n1C(C)C
# Summary of the method: as §1
# [8] = compound: Cn1cc(-c2ccc3c(c2)CCN3C(=O)Cc2cccc(C(F)(F)F)c2)c2c(N)ncnc21
# Summary of the method: as §1
# [9] = compound: Cn1cc(-c2ccc3nnc(C(F)(F)c4ccc5ncccc5c4)n3n2)cn1
# Summary of the method: as §1
# tipifarnib = compound: Cn1cncc1[C@@](N)(c1ccc(Cl)cc1)c1ccc2c(c1)c(-c1cccc(Cl)c1)cc(=O)n2C [tipifarnib]
# Summary of the method: as §1
# mubritinib = compound: FC(F)(F)c1ccc(/C=C/c2nc(COc3ccc(CCCCn4ccnn4)cc3)co2)cc1 [mubritinib]
# Summary of the method: as §1
# tozasertib = compound: Cc1cc(Nc2cc(N3CCN(C)CC3)nc(Sc3ccc(NC(=O)C4CC4)cc3)n2)n[nH]1 [tozasertib]
# Summary of the method: as §1
Target,log2 fold change [1],log2 fold change (crizotinib),log2 fold change [2],log2 fold change [3],log2 fold change (gandotinib),log2 fold change [4],log2 fold change (doramapimod),log2 fold change (ispinesib),log2 fold change (bafetinib),log2 fold change [5],log2 fold change (nilotinib),log2 fold change [6],log2 fold change (dasatinib),log2 fold change [7],log2 fold change [8],log2 fold change [9],log2 fold change (tipifarnib),log2 fold change (mubritinib),log2 fold change (tozasertib)
NECTIN2 (UniProt Q92692),inactive: 0.004,inactive: 0.121,inactive: 0.082,inactive: -0.148,inactive: -0.036,inactive: -0.038,inactive: 0.015,inactive: 0.113,inactive: 0.03,inactive: -0.023,inactive: -0.023,inactive: 0.022,inactive: -0.017,inactive: 0.055,inactive: 0.096,inactive: 0.009,inactive: 0.008,inactive: 0.023,
NDUFA12 (UniProt Q9UI09),inactive: 0.107,inactive: -0.033,inactive: 0.025,inactive: 0.015,inactive: -0.206,inactive: 0.115,inactive: 0.03,active: -0.385,inactive: 0,inactive: 0.089,inactive: -0.158,inactive: -0.031,inactive: -0.107,inactive: 0.029,inactive: 0.109,inactive: 0.062,inactive: -0.007,active: 0.326,
NCK1 (UniProt P16333),inactive: -0.077,inactive: -0.449,inactive: 0.171,inactive: 0.162,,inactive: 0.076,inactive: -0.008,inactive: -0.173,inactive: 0.062,,inactive: -0.069,inactive: -0.421,inactive: -0.138,inactive: 0.046,inactive: -0.086,inactive: -0.044,inactive: 0.008,inactive: -0.058,
NDFIP1 (UniProt Q9BT67),inactive: 0.349,inactive: -0.004,inactive: 0.045,inactive: -0.167,inactive: 0.052,inactive: 0.08,inactive: -0.068,inactive: 0.015,inactive: -0.137,inactive: -0.08,inactive: -0.214,inactive: 0.354,inactive: 0.039,inactive: 0.225,inactive: -0.038,inactive: -0.072,,inactive: -0.024,
NCAPD2 (UniProt Q15021),inactive: 0.018,inactive: -0.024,inactive: 0.004,inactive: 0.093,inactive: -0.077,inactive: 0.109,inactive: -0.049,inactive: -0.029,inactive: 0.03,inactive: 0.045,inactive: -0.078,inactive: -0.071,inactive: -0.159,inactive: 0.08,inactive: -0.035,inactive: 0.018,inactive: -0.148,inactive: 0.033,
NARS2 (UniProt Q96I59),inactive: 0.038,inactive: -0.099,inactive: 0.125,inactive: -0.061,inactive: 0.02,inactive: -0.028,inactive: -0.009,active: -0.401,inactive: -0.108,inactive: 0.034,inactive: -0.063,inactive: 0.069,inactive: -0.05,inactive: 0.005,inactive: 0.084,inactive: 0.047,inactive: -0.004,inactive: -0.009,
NCAPG (UniProt Q9BPX3),inactive: 0.029,inactive: -0.031,inactive: 0.034,inactive: 0.034,inactive: -0.144,inactive: 0.071,inactive: -0.077,inactive: -0.01,inactive: 0.076,inactive: 0.06,inactive: -0.032,inactive: -0.07,inactive: -0.085,inactive: 0.065,inactive: -0.016,inactive: 0.012,inactive: -0.142,inactive: -0.003,
NDUFB8 (UniProt O95169),inactive: 0.035,inactive: 0.09,inactive: -0.015,inactive: -0.001,inactive: 0.045,inactive: 0.078,inactive: -0.057,inactive: 0.123,inactive: -0.029,inactive: -0.002,inactive: 0.015,inactive: 0.027,inactive: 0.056,inactive: -0.04,inactive: -0.08,inactive: 0.154,inactive: 0.071,inactive: 0.027,
NECTIN2 isoform 2 (UniProt Q92692),inactive: -0.059,inactive: 0.062,inactive: -0.2,,inactive: -0.206,inactive: -0.149,inactive: -0.086,inactive: 0.198,inactive: -0.64,inactive: 0.145,inactive: 0.129,inactive: -0.016,inactive: 0.001,inactive: 0.006,,inactive: -0.129,,inactive: -0.049,
NDUFB1 (UniProt O75438),inactive: 0.06,inactive: 0.019,inactive: 0.105,inactive: 0.044,inactive: -0.27,,inactive: -0.044,,inactive: -0.116,inactive: 0.028,inactive: 0.095,inactive: 0.009,,inactive: -0.028,inactive: 0.004,,inactive: 0.038,inactive: 0.022,
"NA, A0A2R8Y3M9",inactive: -0.084,inactive: 0.013,,inactive: -0.011,inactive: -0.099,inactive: -0.107,inactive: -0.008,inactive: -0.125,inactive: -0.605,inactive: 0.19,inactive: 0.035,inactive: -0.091,inactive: -0.013,inactive: 0.31,inactive: 0.503,inactive: -0.117,inactive: 0.08,,
NCL (UniProt P19338),inactive: -0.136,inactive: 0.12,inactive: -0.59,inactive: 0.428,inactive: 0.315,inactive: 0.075,inactive: 0.254,inactive: -0.19,inactive: 0.272,inactive: 0,inactive: -0.033,inactive: 0.026,inactive: 0.209,inactive: 0.051,inactive: -0.445,inactive: -0.237,inactive: 0.225,inactive: -0.325,
"NA, A0A0B4J2A0",inactive: -0.087,inactive: -0.18,inactive: 0.093,inactive: 0.06,inactive: -0.087,inactive: 0.061,inactive: -0.049,inactive: -0.121,inactive: -0.066,inactive: 0.024,inactive: 0.035,inactive: -0.024,inactive: -0.111,inactive: 0.006,inactive: 0.025,inactive: -0.015,inactive: 0.007,inactive: -0.011,
NDRG2 (UniProt G3V392),inactive: -0.043,inactive: 0.029,inactive: 0.198,,,,inactive: 0.152,,inactive: -0.131,,,,,,,,inactive: 0.099,inactive: -0.418,
NANS (UniProt Q9NR45),inactive: -0.074,inactive: 0.026,inactive: 0.052,inactive: -0.098,inactive: -0.03,inactive: 0.001,inactive: -0.006,inactive: 0.074,inactive: 0.04,inactive: 0.05,inactive: 0.069,inactive: -0.007,inactive: -0.018,inactive: -0.018,inactive: 0.05,inactive: -0.017,inactive: -0.067,inactive: -0.023,
NAPG (UniProt Q99747),inactive: 0.045,inactive: -0.029,inactive: 0.045,inactive: -0.098,inactive: -0.046,inactive: 0.143,inactive: -0.05,inactive: 0.025,inactive: 0,inactive: 0.128,inactive: -0.057,inactive: -0.157,inactive: -0.133,inactive: -0.011,inactive: 0.034,inactive: 0.033,inactive: -0.094,inactive: 0.062,
NDUFB10 (UniProt O96000),inactive: 0.024,inactive: -0.025,inactive: 0.012,inactive: 0.027,inactive: -0.029,inactive: 0.024,inactive: 0.003,inactive: -0.073,inactive: -0.105,inactive: -0.11,inactive: -0.02,inactive: 0.026,inactive: -0.011,inactive: -0.021,inactive: 0.015,inactive: 0.081,inactive: 0.044,inactive: 0.019,
MYSM1 (UniProt Q5VVJ2),inactive: 0.067,inactive: -0.091,,,,,inactive: -0.045,inactive: 0.128,inactive: -0.138,,,,,,,inactive: 0.18,,,
NAIP (UniProt Q13075),,inactive: 0.075,,,,,inactive: -0.067,inactive: -0.895,,,,,,,,inactive: 0.301,inactive: 0.212,,
NDUFV1 (UniProt E9PJL9),inactive: -0.095,inactive: 0.076,,,,,inactive: -0.042,,inactive: 0.015,,inactive: -0.021,inactive: 0.092,,inactive: -0.049,,,inactive: 0.149,inactive: 0.083,inactive: -0.009

# Taken from the listing (2 entries):
Target,log2 fold change [1],log2 fold change (crizotinib),log2 fold change [2],log2 fold change [3],log2 fold change (gandotinib),log2 fold change [4],log2 fold change (doramapimod),log2 fold change (ispinesib),log2 fold change (bafetinib),log2 fold change [5],log2 fold change (nilotinib),log2 fold change [6],log2 fold change (dasatinib),log2 fold change [7],log2 fold change [8],log2 fold change [9],log2 fold change (tipifarnib),log2 fold change (mubritinib),log2 fold change (tozasertib)
"NA, A0A0B4J2A0",inactive: -0.087,inactive: -0.18,inactive: 0.093,inactive: 0.06,inactive: -0.087,inactive: 0.061,inactive: -0.049,inactive: -0.121,inactive: -0.066,inactive: 0.024,inactive: 0.035,inactive: -0.024,inactive: -0.111,inactive: 0.006,inactive: 0.025,inactive: -0.015,inactive: 0.007,inactive: -0.011,
NDRG2 (UniProt G3V392),inactive: -0.043,inactive: 0.029,inactive: 0.198,,,,inactive: 0.152,,inactive: -0.131,,,,,,,,inactive: 0.099,inactive: -0.418,
